No constants are given. Whether binding was seen depends on the method and setting. Some entries that bind do so weakly or less than the wild type.

The source of these data is patent US20060025329A1.

Test [1] addresses sVLDLr1-8 (VLDL receptor ligand binding repeats 1-8) (UniProt P98155). Nature of the test: competition ELISA, 1 nM RAP on immobilized sVLDLr1-8, competitor concentration varied.
Test [2] shares this target. The experiment in a line: competition ELISA, RAP on immobilized VLDLr ligand binding repeats 1-8.

Consider KTKRKRKKQRVKIAYEEIFVKNM [TFPI C-terminal peptide (carboxyl terminal 23 amino acids of TFPI)], for which the binding entry in test [1] and in test [2] was “binds” each time.
